# Reference: patent US12350403B2, “Methods of making therapeutic polymeric material” (priority 2015, dated 2025)
# Some entries share one result that the patent states for a list of compounds.
# Assay: In vitro release of rifampin and vancomycin from layered RV-PE into PBS at 37° C.
# Assay type: physicochemical
# Settings: 3.3 wt % rifampin and 6.7 wt % vancomycin-blended UHMWPE, 1 mm layer, PBS 37° C.
compound,measurement,value
CN[C@H](CC(C)C)C(=O)N[C@H]1C(=O)N[C@@H](CC(N)=O)C(=O)N[C@H]2C(=O)N[C@H]3C(=O)N[C@H](C(=O)N[C@H](C(=O)O)c4cc(O)cc(O)c4-c4cc3ccc4O)[C@H](O)c3ccc(c(Cl)c3)Oc3cc2cc(c3O[C@@H]2O[C@H](CO)[C@@H](O)[C@H](O)[C@H]2O[C@H]2C[C@](C)(N)[C@H](O)[C@H](C)O2)Oc2ccc(cc2Cl)[C@H]1O [vancomycin],time during which release rate was higher than the minimum release rate,at least 36 weeks
